In publication PMC4863158:
Results are given in words; binding and its absence hold for the method and conditions named. In cells and extracts the contact can be indirect. Some results given as binding are weak or reduced against the parent protein; the word gives no strength. Sequences can lack the tags named with a protein.

By UniProt entry, the sequences of proteins in these tests, tags left out.
UniProt Q3UHC2: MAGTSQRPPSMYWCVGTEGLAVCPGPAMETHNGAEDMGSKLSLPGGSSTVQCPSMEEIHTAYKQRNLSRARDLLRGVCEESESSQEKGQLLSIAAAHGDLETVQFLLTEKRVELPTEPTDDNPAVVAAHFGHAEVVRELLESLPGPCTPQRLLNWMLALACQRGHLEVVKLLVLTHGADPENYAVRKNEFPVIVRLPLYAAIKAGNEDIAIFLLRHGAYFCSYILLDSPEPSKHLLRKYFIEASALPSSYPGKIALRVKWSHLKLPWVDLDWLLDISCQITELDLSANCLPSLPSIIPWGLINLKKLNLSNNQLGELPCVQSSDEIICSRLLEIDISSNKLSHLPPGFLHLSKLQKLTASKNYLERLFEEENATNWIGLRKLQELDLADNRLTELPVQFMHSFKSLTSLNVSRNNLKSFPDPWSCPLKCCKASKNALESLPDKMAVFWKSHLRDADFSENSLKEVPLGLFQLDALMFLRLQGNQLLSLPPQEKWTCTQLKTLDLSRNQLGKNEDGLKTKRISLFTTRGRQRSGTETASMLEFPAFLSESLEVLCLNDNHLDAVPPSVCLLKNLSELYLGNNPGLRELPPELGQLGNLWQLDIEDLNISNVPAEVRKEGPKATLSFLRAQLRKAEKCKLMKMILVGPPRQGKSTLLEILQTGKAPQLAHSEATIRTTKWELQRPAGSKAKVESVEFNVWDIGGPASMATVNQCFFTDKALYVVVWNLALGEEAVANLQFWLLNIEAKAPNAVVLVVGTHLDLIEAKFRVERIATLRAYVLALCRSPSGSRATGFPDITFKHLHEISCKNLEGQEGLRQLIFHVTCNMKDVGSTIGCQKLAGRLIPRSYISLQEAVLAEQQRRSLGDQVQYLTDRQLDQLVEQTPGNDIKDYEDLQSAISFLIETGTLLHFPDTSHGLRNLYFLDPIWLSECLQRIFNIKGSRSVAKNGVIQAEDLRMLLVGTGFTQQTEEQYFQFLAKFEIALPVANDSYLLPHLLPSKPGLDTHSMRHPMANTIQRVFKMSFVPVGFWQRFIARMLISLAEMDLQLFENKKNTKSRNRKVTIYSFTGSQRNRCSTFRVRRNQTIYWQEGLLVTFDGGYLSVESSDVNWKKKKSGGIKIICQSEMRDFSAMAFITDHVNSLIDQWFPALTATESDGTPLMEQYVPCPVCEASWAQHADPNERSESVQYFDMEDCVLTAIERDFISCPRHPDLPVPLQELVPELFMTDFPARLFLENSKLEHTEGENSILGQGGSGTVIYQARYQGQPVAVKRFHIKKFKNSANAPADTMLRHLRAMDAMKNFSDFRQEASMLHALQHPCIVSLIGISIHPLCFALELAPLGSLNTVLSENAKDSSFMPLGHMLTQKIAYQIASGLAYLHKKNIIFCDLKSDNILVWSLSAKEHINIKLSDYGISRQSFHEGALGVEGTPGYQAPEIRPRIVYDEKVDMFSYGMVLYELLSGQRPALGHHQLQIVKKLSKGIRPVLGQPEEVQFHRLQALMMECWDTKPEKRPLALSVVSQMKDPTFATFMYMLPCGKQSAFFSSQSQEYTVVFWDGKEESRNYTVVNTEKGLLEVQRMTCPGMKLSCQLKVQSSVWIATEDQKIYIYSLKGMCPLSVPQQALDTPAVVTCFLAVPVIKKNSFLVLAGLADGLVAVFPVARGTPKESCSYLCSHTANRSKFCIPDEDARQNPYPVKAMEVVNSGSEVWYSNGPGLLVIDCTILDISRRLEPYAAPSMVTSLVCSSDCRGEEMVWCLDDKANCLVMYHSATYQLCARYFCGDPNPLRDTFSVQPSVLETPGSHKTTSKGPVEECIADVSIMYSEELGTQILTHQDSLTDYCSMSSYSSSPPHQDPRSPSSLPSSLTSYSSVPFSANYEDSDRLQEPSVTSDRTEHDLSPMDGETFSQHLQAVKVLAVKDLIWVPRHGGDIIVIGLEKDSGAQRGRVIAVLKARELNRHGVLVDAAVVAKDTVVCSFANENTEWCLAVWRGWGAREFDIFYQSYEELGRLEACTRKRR

Molecular target: T1, C terminally FLAG-tagged mouse CARMA1 (mouse) (UniProt Q8CIS0)
T1 sequence: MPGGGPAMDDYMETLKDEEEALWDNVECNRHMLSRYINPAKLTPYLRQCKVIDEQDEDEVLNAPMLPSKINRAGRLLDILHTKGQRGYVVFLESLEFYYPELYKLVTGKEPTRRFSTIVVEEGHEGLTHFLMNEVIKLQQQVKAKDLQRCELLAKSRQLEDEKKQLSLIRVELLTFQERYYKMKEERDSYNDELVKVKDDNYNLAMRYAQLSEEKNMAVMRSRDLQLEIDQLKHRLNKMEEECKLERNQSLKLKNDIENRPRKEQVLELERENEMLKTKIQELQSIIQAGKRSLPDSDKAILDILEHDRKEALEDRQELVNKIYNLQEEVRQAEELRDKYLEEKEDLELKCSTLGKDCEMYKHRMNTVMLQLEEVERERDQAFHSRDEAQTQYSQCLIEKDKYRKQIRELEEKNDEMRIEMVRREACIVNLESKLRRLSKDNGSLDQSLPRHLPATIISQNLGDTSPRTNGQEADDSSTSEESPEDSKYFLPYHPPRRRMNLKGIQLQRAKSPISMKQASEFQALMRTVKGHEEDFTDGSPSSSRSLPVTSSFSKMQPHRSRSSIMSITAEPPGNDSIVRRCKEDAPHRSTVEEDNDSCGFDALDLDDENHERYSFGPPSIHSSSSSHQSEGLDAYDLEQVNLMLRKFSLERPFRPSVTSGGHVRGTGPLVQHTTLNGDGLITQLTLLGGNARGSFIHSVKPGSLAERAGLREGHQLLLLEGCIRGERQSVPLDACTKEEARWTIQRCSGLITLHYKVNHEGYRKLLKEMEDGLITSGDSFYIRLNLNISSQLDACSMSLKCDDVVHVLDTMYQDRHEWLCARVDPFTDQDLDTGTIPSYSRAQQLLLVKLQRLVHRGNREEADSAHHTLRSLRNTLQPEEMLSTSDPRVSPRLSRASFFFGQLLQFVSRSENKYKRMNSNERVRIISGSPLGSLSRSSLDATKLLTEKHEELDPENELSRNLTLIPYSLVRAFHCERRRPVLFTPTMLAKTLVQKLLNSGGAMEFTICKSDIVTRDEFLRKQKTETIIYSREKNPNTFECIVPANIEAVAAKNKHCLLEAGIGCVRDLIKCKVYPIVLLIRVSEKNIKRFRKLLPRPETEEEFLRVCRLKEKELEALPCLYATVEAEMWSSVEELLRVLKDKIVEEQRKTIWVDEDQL
Test: co-IP; HEK293T cells transfected with CARMA1-FLAG and LRRK1-GFP, unstimulated or stimulated with 50 ng/ml PMA and 0.5 uM ionomycin for 0, 2, 5 or 15 min; lysis buffer with 0.2% Nonidet P-40; CARMA1-FLAG precipitated with anti-FLAG (M2) on protein G Dynabeads; blot with anti-GFP

binding: binds
Substance: GFP-tagged mouse LRRK1 (leucine-rich repeat kinase 1) (from UniProt Q3UHC2 1-2014)
